Laboratory results from PubChem BioAssay AID540276 (National Center for Advancing Translational Sciences (NCATS), 2011).
Among all 300,000 compounds or so, about 5,400 (1.8%) were called active. The inconclusive results got no clear call from the source; some entries with a clear call stand among them for comparison. Calls come from the whole dose curve; tested in HEK293 cells. Where the call is inconclusive, the potency comes from a doubtful curve fit.

assay: qHTS for inhibitors of binding or entry into cells for Marburg Virus; conditions: Marburg virus pseudotyped entry inhibition, cell reporter; activity change, negative = inhibition: at 37.8 µM (top of the series) unless noted
% is set by controls: 0 for no effect and ±100 for the full control effect; potency is the fitted concentration of half-maximal effect.

| SMILES | activity change, negative = inhibition | Potency |
| --- | --- | --- |
| COc1cc(SC)ccc1C(=O)OCC(=O)N1CC(=O)Nc2ccccc21 | inactive: -0.799% | – |
| c1ccc(-c2cc3c(ccc4nonc43)nn2)cc1 | inactive: 2.94% | – |
| N=c1oc2ccc3ccccc3c2cc1-c1nnc2n1CCCCC2 | inactive: -5.48% | – |
| CCCC(=O)Nc1ccc(Cl)c(NC(=O)c2cccnc2)c1 | inactive: -18% | – |
| O=C1N(CN2CCN(Cc3ccccc3)CC2)c2ccccc2C12OCCCO2 | – | inconclusive: 35.5 µM [activator, single point] |
| Cc1ccc(C(=O)N2CCN(c3cccc(Cl)c3)CC2)cc1C | – | inconclusive: 6.51 µM [inhibitor, full curve, poor fit] |
| CCOc1ccc(Cn2nnc(C(=O)Nc3ccc(Cl)cc3)c2N)cc1 | inactive: 15.1% [at 46.1 µM] | – |
| COc1ccc(S(=O)(=O)NCC(c2ccc(C)cc2)N2CCN(C)CC2)cc1 (centres undefined) | – | inconclusive: 10 µM [inhibitor, partial curve, poor fit] |
| CCCNc1nc(Cl)nc(NC(C)(C)C)n1 | – | inconclusive: 1.12 µM [inhibitor, full curve, poor fit] |
| Cc1ccc2c(CN3CCN(S(=O)(=O)c4ccc5c(c4)OCCO5)CC3)cc(=O)oc2c1C | – | inconclusive: 35.5 µM [inhibitor, single point] |
| O=C(NCCC(=O)N1CCN(C(=O)c2ccco2)CC1)c1ccccc1Cl | – | inconclusive: 7.94 µM [inhibitor, partial curve, poor fit] |
| CC1CCc2ccccc2N1CC(=O)Nc1cccc(S(=O)(=O)N2CCCC2)c1 (centres undefined) | – | inconclusive: 35.5 µM [inhibitor, single point] |
| CCc1nnc2sc(-c3ccc(NC(=O)c4ccc5c(c4)OCCO5)cc3)nn12 | – | inconclusive: 0.794 µM [inhibitor, partial curve, poor fit] |
| CCOC(=O)c1c(-c2ccccc2)oc2ccc(N(C(C)=O)S(=O)(=O)c3ccccc3)cc12 | inactive: 8.31% [at 46.1 µM] | – |
| CC1CCCCN1C(=S)Nc1ccc(OC(F)F)cc1 (centres undefined) | – | inconclusive: 8.91 µM [activator, partial curve, poor fit] |
| CCN(Cc1ccncc1)Cc1c(O)ccc2ccccc12 | inactive: -6.06% [at 46.1 µM] | – |
| Cc1ccc([N+](=O)[O-])cc1NC(=O)C1CCN(S(C)(=O)=O)CC1 | inactive: 3.04% | – |
| Cc1ccc(NC(=O)CN2C(=O)NC3(CCc4ccccc43)C2=O)cc1S(=O)(=O)N1CCCCC1 (centres undefined) | inactive: -15.3% | – |
| O=C(O)Cn1cc(/C=C2/SC(=O)N(CC(=O)N3CCCCCC3)C2=O)c2ccccc21 | – | inconclusive: 6.31 µM [activator, single point] |
| CCOc1ccc(N2C(=O)C(CC(=O)Nc3ccc(F)cc3)N(Cc3ccccn3)C2=S)cc1 (centres undefined) | – | inconclusive: 35.5 µM [inhibitor, single point] |
| O=C(NCc1ccco1)c1ccccc1-c1nc(-c2ccc(F)cc2)no1 | inactive: -6.69% [at 46.1 µM] | – |
| COc1ccc(CCNc2nc(-c3cccc(NC(C)=O)c3)cs2)cc1OC | – | inconclusive: 7.08 µM [inhibitor, partial curve, poor fit] |
| COc1ccccc1NC(=O)c1c(Nc2ccccc2C)sc(C(=O)Nc2cccc(Cl)c2)c1N | – | inconclusive: 16.4 µM [inhibitor, single point] |

| SMILES | activity change, negative = inhibition | Potency |
| --- | --- | --- |
| CCSc1oc(-c2cccs2)nc1S(=O)(=O)c1ccc(Br)cc1 | inactive: -16% [at 46.1 µM] | – |
| O=C1C(=O)c2ccccc2C(O)=C1c1ccccc1F | inactive: -14.3% | – |
| Cc1ccc(NC(=O)c2ccc(S(=O)(=O)N3CCCCC3)cc2)cc1 | inactive: 2.48% | – |
| COc1cccc(CN2CC(C(=O)NCCn3cccn3)CCC2=O)c1 (centres undefined) | inactive: 27.6% [at 46.1 µM] | – |
| O=C(COC(=O)c1cc([N+](=O)[O-])ccc1NCCO)Nc1ccc2c(c1)OCO2 | – | inconclusive: 17.8 µM [inhibitor, single point] |
| Cc1ccc(Nc2nc(N)nc(CN3CCN(Cc4ccc5c(c4)OCO5)CC3)n2)cc1C | – | inconclusive: 12.6 µM [inhibitor, single point] |
| CCOC(=O)c1c2c(n(C)c1C)C(=O)C(=O)c1ccc(Br)cc1-2 | – | inconclusive: 2.51 µM [inhibitor, partial curve, poor fit] |
| CCc1ccc2[nH]c(=O)c(CN(Cc3ccc(OC)cc3)Cc3nnnn3CCOC)cc2c1 | – | active: 14.1 µM |
| CC1CCCN(C(=O)COc2ccc(-c3ccccc3)cc2)C1 (centres undefined) | – | inconclusive: 12.6 µM [inhibitor, partial curve, poor fit] |
| Cc1ccc(N=Nc2ccc(O)cc2)c(Br)c1 | – | inconclusive: 35.5 µM [inhibitor, single point] |
| Cc1ccc(C(C)C)c(OCCn2c(=O)oc3ccccc32)c1 | – | inconclusive: 15.8 µM [inhibitor, partial curve, poor fit] |
| Cc1ccc(NS(=O)(=O)c2cccc(C(=O)NC3CCN(Cc4ccccc4)CC3)c2)cc1 | – | inconclusive: 35.5 µM [inhibitor, single point] |
| Cc1ccc(NC(=O)NNC(=O)Cn2nc(-c3ccccc3)c(-c3ccccc3)c(C#N)c2=O)cc1 | – | inconclusive: 11.2 µM [inhibitor, partial curve] |
| CC(=O)c1ccc(NC(=O)c2c(C)nn(-c3ccccc3)c2Cl)cc1 | – | inconclusive: 0.501 µM [activator, full curve, poor fit] |
| Cc1nc(C)c(-c2nnc(-c3ccc(C(C)(C)C)cc3)o2)cc1C(=O)NN | – | inconclusive: 3.66 µM [activator, single point] |
| CCOC(=O)c1c(NC(=S)N2CCN(C)CC2)sc2c1CCN(C(=O)OCC)C2 | – | inconclusive: 2 µM [inhibitor, partial curve, poor fit] |
| Cc1nn(Cc2ccccc2Cl)c(C)c1NC(=O)c1cc(-c2ccc(F)cc2)on1 | – | inconclusive: 13 µM [inhibitor, partial curve, poor fit] |
| CC1CC2=C(CC1/C=N/NC(N)=S)C(C)(C)CCC2 (centres undefined) | – | inconclusive: 31.6 µM [inhibitor, partial curve, poor fit] |
| O=C(NCC(=O)N1CC=C(c2ccccc2)CC1)c1ccccc1Br | – | inconclusive: 35.5 µM [inhibitor, single point] |
| CC(=O)c1ccc(N2CCC(C(=O)O)CC2)cc1 | – | inconclusive: 11.2 µM [activator, single point] |
| COc1ccc(OCCn2cncn2)cc1 | inactive: 9.61% | – |
| COc1cnn(-c2ccc(C)cc2)c(=O)c1Cl | – | inconclusive: 0.562 µM [activator, full curve, poor fit] |
| COc1cc(OC)cc(-c2cc3nc(C)c(CCC(=O)Nc4ccccc4OC)c(C)n3n2)c1 | – | inconclusive: 20 µM [inhibitor, partial curve, poor fit] |

Among those listed so far, 3 have a thiophene ring, fused or not:

| SMILES | activity change, negative = inhibition | Potency |
| --- | --- | --- |
| COc1ccccc1NC(=O)c1c(Nc2ccccc2C)sc(C(=O)Nc2cccc(Cl)c2)c1N | – | inconclusive: 16.4 µM [inhibitor, single point] |
| CCSc1oc(-c2cccs2)nc1S(=O)(=O)c1ccc(Br)cc1 | inactive: -16% [at 46.1 µM] | – |
| CCOC(=O)c1c(NC(=S)N2CCN(C)CC2)sc2c1CCN(C(=O)OCC)C2 | – | inconclusive: 2 µM [inhibitor, partial curve, poor fit] |

(listing goes on)

| SMILES | activity change, negative = inhibition | Potency |
| --- | --- | --- |
| C[C@@H](C(=O)Nc1ccc2ccccc2c1)[C@H]1C[C@]1(C)[C@H](NP(=O)(c1ccccc1)c1ccccc1)c1ccccc1 | – | inconclusive: 25.9 µM [inhibitor, single point] |
| Cc1ccc(-c2csc(NC(=O)CCNC(=O)c3ccc(Cl)cc3)n2)cc1 | – | inconclusive: 10 µM [inhibitor, partial curve] |
| CCC1Oc2nc(SC)nnc2-c2ccccc2N1C(=O)c1ccccc1 (centres undefined) | inactive: -25.5% | – |
| COCCNC(=S)N(CCc1c(C)[nH]c2ccccc12)Cc1cccnc1 | inactive: -8.09% | – |
| CCCCOc1ccc(CONS(=O)(=O)c2ccc(NC(C)=O)cc2)cc1Cl | – | inconclusive: 29.1 µM [inhibitor, single point] |
| Nc1ncnc2nc(SCc3ccccc3)[nH]c12 | – | inconclusive: 11.2 µM [inhibitor, partial curve, poor fit] |
| Cc1nn2c(CN(C(=O)COc3ccccc3)c3ccccc3)nnc2c2ccccc12 | inactive: -4.77% | – |
| Nc1[nH]c(N=NC(=O)c2ccc(Cl)cc2)c2ccccc12 | – | inconclusive: 1.26 µM [activator, single point] |
| CCCC(=O)CN1C(=O)C2(OCCO2)c2ccccc21 | – | inconclusive: 0.651 µM [inhibitor, partial curve, poor fit] |
| Cc1c(C(=O)NCCSCc2c(F)cccc2Cl)cnn1-c1ccc(F)cc1 | – | inconclusive: 6.31 µM [activator, single point] |
| C(=NN1CCCCCC1)c1ccccc1 | – | inconclusive: 22.4 µM [activator, single point] |
| Cc1[nH]cnc1C(=O)N/N=C/c1ccc([N+](=O)[O-])s1 | – | inconclusive: 11.2 µM [inhibitor, partial curve, poor fit] |
| Cc1noc2ncnc(Oc3ccc4ccccc4c3)c12 | inactive: -5.14% | – |
| CCc1nc2sc3ccccc3c(=O)c2c(=O)n1Cc1ccc(OC)cc1 | – | inconclusive: 6.31 µM [activator, single point] |
| Cc1ccc(-c2csc(=Nc3ccccc3)n2Cc2ccc3c(c2)OCO3)cc1 | – | inconclusive: 7.08 µM [activator, partial curve, poor fit] |
| CC1CCc2sc(C(=O)NCC3CCCO3)cc2C1 (centres undefined) | inactive: 5.2% [at 46.1 µM] | – |
| COc1ccc(N2C(=O)CN(Cc3ccc(OC)c(OC)c3)C2=S)cc1 | inactive: -7.99% [at 46.1 µM] | – |
| Cc1nc(N2CCN(Cc3ccccc3)CC2)[nH]c(=O)c1C | inactive: 4.15% | – |
| CCOc1ccccc1OCCCC(=O)N(C)CC(=O)Nc1cc(C)ccc1C | inactive: 1.94% [at 46.1 µM] | – |
| CCCCCCc1cc2cc(C(=O)Nc3ccccc3)c(=O)oc2cc1O | – | active: 2 µM |
| O=C(O)c1ccc(-c2ccc(/C=c3/sc4nc5ccccc5n4c3=O)o2)cc1Cl | inactive: -1.46% [at 46.1 µM] | – |
| CC(C)(C)c1ccc(O)c(N=Cc2c(O)ccc3ccccc23)c1 | – | inconclusive: 12.6 µM [inhibitor, partial curve, poor fit] |
| O=C(CSCSCC(=O)Nc1ccc2c(c1)OCO2)Nc1ccc2c(c1)OCO2 | – | inconclusive: 0.517 µM [inhibitor, partial curve, poor fit] |

2 compounds drawn at random from the list so far:

| SMILES | activity change, negative = inhibition | Potency |
| --- | --- | --- |
| Cc1[nH]cnc1C(=O)N/N=C/c1ccc([N+](=O)[O-])s1 | – | inconclusive: 11.2 µM [inhibitor, partial curve, poor fit] |
| Cc1noc2ncnc(Oc3ccc4ccccc4c3)c12 | inactive: -5.14% | – |
